Values of other authors, collected in US10662178B2, “Crystalline form of Olaparib” (Apotex Inc., priority 2018, dated 2020).
The name of at least one read-out is uncertain.

Conditions: drug substance in the approved drug product LYNPARZA; CHMP Assessment Report EMEA/H/C/003726/0000

O=C(c1cc(Cc2n[nH]c(=O)c3ccccc23)ccc1F)N1CCN(C(=O)C2CC2)CC1 [Olaparib, 4-[(3-{[4-(cyclopropylcarbonyl)-piperazin-1-yl]carbonyl}-4-fluorophenyl)methyl]phthalazin-1(2H)-one]
permeability: low permeability
